Results as given in publication PMC10484666.
The exact form of at least one protein or probe is not confirmed.

The chains behind the UniProt entries cited, without tags or fusion partners. Residues count along the entry.
UniProt O42254, 387-573 Y396F: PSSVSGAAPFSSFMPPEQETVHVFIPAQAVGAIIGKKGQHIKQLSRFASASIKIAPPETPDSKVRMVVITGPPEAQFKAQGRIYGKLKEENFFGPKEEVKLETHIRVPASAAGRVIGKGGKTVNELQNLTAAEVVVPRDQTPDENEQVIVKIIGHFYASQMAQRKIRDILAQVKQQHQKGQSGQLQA

Target: IMP1 KH34 Y396F (Gallus gallus) (UniProt O42254)
Test: BLI
Settings: interferograms previously obtained (ref 19); BLI: 10 mM Na2HPO4 pH 6.5, 50 mM NaCl, 1 mM TCEP, 2 mg/ml BSA, 0.005% Tween-20, 25 C; recombinant protein; protein details: N-terminal 6xHis removed by TEV; label: 5' biotin

Sequence: ACCGGACUGUUACCAACACCCACACCCC [ACTB zipcode RNA, unmodified]
- Kd: 20.9 nM
